Taken from: PubChem BioAssay AID1224831 (NIAID, 2016)

Test: 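Genes that support or restrain LPS-induced TNF-alpha reporter activity in macrophage-like cells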 (follow-up of hits)
Cells: human THP-1 B5 monocytic leukaemia cells carrying a TNF promoter luciferase reporter, made macrophage-like with PMA
Reagents: single siRNA against human genes, 50 nM
Timing: about 68 h of knock-down, then 4 h LPS
Challenge: LPS (Salmonella minnesota, TLR-grade) at 10 ng/ml for 4 h; PMA 5 ng/ml present during knock-down
Measurement: 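TNF promoter reporter read as dual luciferase ratio after 4 h LPS, normalised per plate to its median, given as replicate mean robust z-score per siRNA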
Reading the numbers: TNF reporter z-score: higher = stronger LPS-induced TNF reporter signal; z-score, median over gene's siRNAs: higher = stronger TNF reporter signal across the gene's siRNAs
Hit rule: 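Active when the replicate mean z-score is about -1 or lower, or about 1.5 or higher; lowered and raised TNF reporter signal both count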
Meaning of the calls: active = changed TNF reporter (either direction); inactive = little change
Shown is one part, drawn at random, of about 3,500 reagents tested. 731 of them (21%) were called active. 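Active means either lowered or raised reporter signal; the gene-median score did not drive the per-siRNA calls.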 Unmarked entries are inactive. The numbers tell different reagents against one gene apart. Reagent sequences are not shown.

no.	Gene	reagent	TNF reporter z-score, replicate mean	z-score, median over gene's siRNAs
1	GTF2IRD2B (GTF2I repeat domain containing 2B)	1	0.92	-0.24
2	GTF2IRD2B (GTF2I repeat domain containing 2B)	2	-0.73	-0.24
3	GTF2IRD2B (GTF2I repeat domain containing 2B)	3	0.24	-0.24
4	GTF2IRD2B (GTF2I repeat domain containing 2B)	4	2.38 (active)	-0.24
5	GTF2IRD2B (GTF2I repeat domain containing 2B)	5	-0.72	-0.24
6	GTF2IRD2B (GTF2I repeat domain containing 2B)	6	-0.77	-0.24
7	CT45A3 (cancer/testis antigen family 45 member A3)	1	0.34	-0.035
8	CT45A3 (cancer/testis antigen family 45 member A3)	2	-0.63	-0.035
9	CT45A3 (cancer/testis antigen family 45 member A3)	3	-0.4	-0.035
10	CT45A3 (cancer/testis antigen family 45 member A3)	4	-0.6	-0.035
11	CT45A3 (cancer/testis antigen family 45 member A3)	5	0.33	-0.035
12	CT45A3 (cancer/testis antigen family 45 member A3)	6	5.16 (active)	-0.035
13	GHRL (ghrelin and obestatin prepropeptide)	1	-0.25	0.21
14	GHRL (ghrelin and obestatin prepropeptide)	2	0.24	0.21
15	GHRL (ghrelin and obestatin prepropeptide)	3	0.18	0.21
16	GHRL (ghrelin and obestatin prepropeptide)	4	0.28	0.21
17	GHRL (ghrelin and obestatin prepropeptide)	5	-0.01	0.21
18	GHRL (ghrelin and obestatin prepropeptide)	6	0.7	0.21
19	OASL (2'-5'-oligoadenylate synthetase like)	1	1.76 (active)	0.295
20	OASL (2'-5'-oligoadenylate synthetase like)	2	-1.29 (active)	0.295
21	OASL (2'-5'-oligoadenylate synthetase like)	3	0.83	0.295
22	OASL (2'-5'-oligoadenylate synthetase like)	4	0.34	0.295
23	OASL (2'-5'-oligoadenylate synthetase like)	5	0.25	0.295
24	OASL (2'-5'-oligoadenylate synthetase like)	6	0.15	0.295
25	ZNF319 (zinc finger protein 319)	1	-0.7	-0.015
26	ZNF319 (zinc finger protein 319)	2	-0.64	-0.015
27	ZNF319 (zinc finger protein 319)	3	0.51	-0.015
28	ZNF319 (zinc finger protein 319)	4	0.18	-0.015
29	ZNF319 (zinc finger protein 319)	5	1.1	-0.015
30	ZNF319 (zinc finger protein 319)	6	-0.21	-0.015
31	ZIK1 (zinc finger protein interacting with K protein 1)	1	-0.74	0.3
32	ZIK1 (zinc finger protein interacting with K protein 1)	2	0.1	0.3
33	ZIK1 (zinc finger protein interacting with K protein 1)	3	-0.62	0.3
34	ZIK1 (zinc finger protein interacting with K protein 1)	4	1.31	0.3
35	ZIK1 (zinc finger protein interacting with K protein 1)	5	1.12	0.3
36	ZIK1 (zinc finger protein interacting with K protein 1)	6	0.5	0.3

Sorted by “z-score, median over gene's siRNAs” (high to low): some entries from above
Gene	reagent	TNF reporter z-score, replicate mean	z-score, median over gene's siRNAs
ZIK1 (zinc finger protein interacting with K protein 1)	1	-0.74	0.3
ZIK1 (zinc finger protein interacting with K protein 1)	2	0.1	0.3
ZIK1 (zinc finger protein interacting with K protein 1)	3	-0.62	0.3
ZIK1 (zinc finger protein interacting with K protein 1)	4	1.31	0.3
